Screening data, single-dose tests

From ChEMBL document CHEMBL3988442, “University of Dundee, Small-Polar-MMV Screening Library” (2021).

Each number is a percent effect as filed.
How 0% and 100% were set is not recorded. Most values in the screen are low, and negative values occur.
This is an unselected part of the compounds tested.

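Whole-parasite assay of Trypanosoma brucei over 72 hours; the read-out is not stated. Concentration: 30 µM. Higher reads as stronger inhibition (inferred: compounds with an IC50 in retests scored well above the rest). Values scatter widely below zero; nearly all retest evidence comes from the higher of the two concentrations used. About 64,000 compounds were tested under these conditions; 1.5% (about 940) showed 50% or more at least once.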

| structure | effect |
|---|---|
| `Cn1cnc2cc(CCC(=O)Nc3n[nH]c(C4CC4)n3)ccc21` | 4.331 |
| `C[C@@H]1CN(CCC(=O)NCc2ccccc2Cl)C[C@@]1(O)C1CC1` | -27.63 |
| `Cc1nc(CN2CCCN(C(=O)c3cccn3C)CC2)cs1` | -51.38 |
| `CC(C)(C)OC(=O)N1CCC(C(=O)NCc2cc3ccccc3[nH]2)C1` (stereo unspecified) | -13.7 |
| `CC(C)c1cnc(CN2CCCC(c3cc(C(N)=O)[nH]n3)C2)o1` (stereo unspecified) | 7.189 |
| `COCCN(Cc1cnn(C)c1)C(=O)C1CCC(=O)N(C2CCCC2)C1` (stereo unspecified) | 11.18 |
| `CCO[C@@H]1CO[C@@]2(CCCN(S(=O)(=O)c3ccccc3)C2)C1` | -7.363 |
| `COc1cccc(C(=O)N2CCc3nc(C4CCCN4)ncc3C2)c1.Cl` (stereo unspecified) | -17.69 |
| `O=C(NCC1CC1)c1cc(Cl)c2c(c1)OCCCO2` | -70.27 |
| `Cc1n[nH]c(C)c1C1CCCN1C(=O)NCC(=O)NC(C)(C)C` (stereo unspecified) | -56.74 |
| `Fc1cnc(N2CCCn3c(CN4CCOCC4)nnc3C2)nc1.O=C(O)C(F)(F)F.O=C(O)C(F)(F)F` | 2.656 |
| `O=C(c1cncs1)N1CCc2[nH]nc(Nc3ccccc3)c2C1` | -0.6393 |
| `CC(Cn1cccn1)NCC(=O)NC1CCOCC1` (stereo unspecified) | -80.52 |
| `Cc1c(C(=O)N2CC(C)(C)C2(C)C)nnn1-c1cccc2cnccc12` | -3.603 |
| `CC(C(=O)N1CCCCCC1)N1CCN(c2nccs2)CC1` (stereo unspecified) | -1.268 |
| `[H][C@@]12CCCO[C@]1([H])[C@H](Nc1ccccn1)CN(Cc1cccc(C)n1)C2` | -27.74 |
| `CCOc1cccc(CSC(C)c2nc(C)no2)n1` (stereo unspecified) | -2.301 |
| `O=C(O)C(F)(F)F.O=C(O)C(F)(F)F.[H][C@@]12CCC(=O)N(Cc3ccncc3)[C@]1([H])CCN2Cc1ccc(C)s1` | -12.72 |
| `Cc1cc2ncn(C(=O)N3CCOCC3)c2cc1C` | -18.74 |
| `Cc1cnn(CC2CN(Cc3nc(-c4ccsc4)no3)CCO2)c1` (stereo unspecified) | 4.338 |
| `Cc1cc(=O)[nH]c(=O)n1-c1ccccc1Br` | -27.67 |
| `CN1CCN(c2ncnc3c2CCN(Cc2nccn2C)CC3)CC1` | -26.4 |
| `CC(=O)N1CCC(C(=O)N(CC(F)F)c2cccc(Cl)c2)CC1` | -23.37 |
| `COc1ccc(Cl)cc1C(=O)N1CCOC2(CNCCOC2)C1` (stereo unspecified) | -16.73 |
| `CC(C)(CNc1c(C#N)cnc2ccc(Cl)cc12)C(N)=O` | -28.79 |
| `CC(C)NC(=O)N1CCC2(COCc3cnc(N4CCOCC4)nc32)C1` (stereo unspecified) | -23.85 |
| `Cc1cnn(C2CN(Cc3nc(-c4cccnc4)no3)C2)c1` | -5.643 |
| `OCCN1CCN(Cc2coc(-c3ccccc3Cl)n2)CC1` | -48.78 |
| `O=C(C1SCCc2sccc21)N1CCN(CCO)CC1` (stereo unspecified) | 7.024 |
| `CCN(C(=O)Nc1nccs1)C(C)c1cccc(O)c1` (stereo unspecified) | 3.914 |
| `O=C(O)C(F)(F)F.[H][C@@]12CN(CC)C[C@]1(C(=O)N(C)C)CCC21CCN(S(C)(=O)=O)CC1` | -11.1 |
| `Cc1nc(C)n(CC2CCCN(c3ncnc4sccc34)C2)n1` (stereo unspecified) | -41.73 |
| `Cc1nn2cccnc2c1C(=O)NCc1ccnc(OCC2CC2)c1` | -38.59 |
| `Cn1ccc(NC(=O)CN2CCN(C3CCCC3)C(=O)C2)n1` | 4.564 |
| `CCS(=O)(=O)NC(CCSC)C(=O)Nc1ccc(C)cc1C` (stereo unspecified) | -73.47 |
| `O=C(c1cncs1)N1CCOC(c2cc(CCO)[nH]n2)C1` (stereo unspecified) | -16 |
| `N#Cc1ccc(CN2CCN(C(=O)CCn3cncn3)CC2)cc1` | -61.96 |
| `C[S+]([O-])c1nncn1CC(=O)c1cccc(C(F)(F)F)c1` (stereo unspecified) | -12.59 |
| `Fc1cnc(N2CCOC3(CCN(Cc4cccs4)CC3)C2)nc1.O=C(O)C(F)(F)F.O=C(O)C(F)(F)F` | -6.565 |
| `O=C(CN1C(=O)c2ccccc2CS1(=O)=O)c1ccccc1` | -50.3 |
| `COCCCN(C)c1cc(C(F)(F)F)nc(-c2cccnc2)n1` | 14.1 |
| `O=C(O)c1ccc(CN2CCCC(Cc3ccn[nH]3)C2)cc1` (stereo unspecified) | 0.7909 |
| `COc1ccc(Cl)cc1C(=O)NCCNc1cnccn1` | 4.307 |
| `CS(=O)(=O)NCc1noc2c1CN(C(=O)c1ccsc1)CC2` | -2.615 |
| `COc1ccc(C(NC(=O)NCc2nnc3n2CCC3)C2CC2)cc1` (stereo unspecified) | -24.85 |
| `Cc1ccc(S(=O)(=O)NCCc2nnc[nH]2)c2cccnc12` | -26.73 |
| `CCc1nc(CN2CCCC(NCc3cnn(C(C)(C)C)c3)C2)no1` (stereo unspecified) | -32.55 |
| `Cc1cnc(C)c(N2CCN(CCCc3[nH]nc(C)c3C)CC2)n1` | 4.145 |
| `[H][C@@]12C[C@@H](OCc3cccnc3)CN1CCN(C(=O)c1cnc(C)cn1)C2` | -654.5 |
| `CCNC(=O)CN1CCc2c(Br)ccc(F)c2C1` | -5.668 |
| `COC(=O)NCC(=O)N1CCCC(c2ncc[nH]2)C1` (stereo unspecified) | -20.69 |